# Results reported in publication doi:10.1101/787473.
# Where two headings read alike, the source gives them in different places. These are yes or no findings as the source states them, for the method shown. In cells and extracts the contact can be indirect. Some results given as binding are weak or reduced against the parent protein; the word gives no strength.
# T1: GR10, synthetic poly-glycine-arginine 10-mer dipeptide repeat protein with C-terminal lysine and cysteine
# T1 sequence (peptide): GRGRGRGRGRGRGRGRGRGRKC
# T2: PR10, synthetic poly-proline-arginine 10-mer dipeptide repeat protein with C-terminal lysine and cysteine
# T2 sequence (peptide): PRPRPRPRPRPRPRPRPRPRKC
# What was measured:
# Experiment in all cases: co-sedimentation
# [1] = target: T1, GR10, synthetic poly-glycine-arginine 10-mer dipeptide repeat protein with C-terminal lysine and cysteine
# [2] = target: T2, PR10, synthetic poly-proline-arginine 10-mer dipeptide repeat protein with C-terminal lysine and cysteine
# [3] = target: T1, GR10, synthetic poly-glycine-arginine 10-mer dipeptide repeat protein with C-terminal lysine and cysteine; remark: listed apart in the source
# [4] = target: T2, PR10, synthetic poly-proline-arginine 10-mer dipeptide repeat protein with C-terminal lysine and cysteine; remark: listed apart in the source
binding [1],binding [2],binding [3],binding [4],Binder
binds,binds,,,"nucleoporin 54, endogenous in HEK cell lysate (protein, UniProt Q7Z3B4 1-507) MAFNFGAPSGTSGTAAATAAPAGGFGGFGTTSTTAGSAFSFSAPTNTGTTGLFGGTQNKGFGFGTGFGTTTGTSTGLGTGLGTGLGFGGFNTQQQQQTTLGGLFSQPTQAPTQSNQLINTASALSAPTLLGDERDAILAKWNQLQAFWGTGKGYFNNNIPPVEFTQENPFCRFKAVGYSCMPSNKDEDGLVVLVFNKKETEIRSQQQQLVESLHKVLGGNQTLTVNVEGTKTLPDDQTEVVIYVVERSPNGTSRRVPATTLYAHFEQANIKTQLQQLGVTLSMTRTELSPAQIKQLLQNPPAGVDPIIWEQAKVDNPDSEKLIPVPMVGFKELLRRLKVQDQMTKQHQTRLDIISEDISELQKNQTTSVAKIAQYKRKLMDLSHRTLQVLIKQEIQRKSGYAIQADEEQLRVQLDTIQGELNAPTQFKGRLNELMSQIRMQNHFGAVRSEERYYIDADLLREIKQHLKQQQEGLSHLISIIKDDLEDIKLVEHGLNETIHIRGGVFS"
binds,binds,binds,binds,"Matrin-3, endogenous in HEK cell lysate (protein, UniProt P43243 1-847) MSKSFQQSSLSRDSQGHGRDLSAAGIGLLAAATQSLSMPASLGRMNQGTARLASLMNLGMSSSLNQQGAHSALSSASTSSHNLQSIFNIGSRGPLPLSSQHRGDADQASNILASFGLSARDLDELSRYPEDKITPENLPQILLQLKRRRTEEGPTLSYGRDGRSATREPPYRVPRDDWEEKRHFRRDSFDDRGPSLNPVLDYDHGSRSQESGYYDRMDYEDDRLRDGERCRDDSFFGETSHNYHKFDSEYERMGRGPGPLQERSLFEKKRGAPPSSNIEDFHGLLPKGYPHLCSICDLPVHSNKEWSQHINGASHSRRCQLLLEIYPEWNPDNDTGHTMGDPFMLQQSTNPAPGILGPPPPSFHLGGPAVGPRGNLGAGNGNLQGPRHMQKGRVETSRVVHIMDFQRGKNLRYQLLQLVEPFGVISNHLILNKINEAFIEMATTEDAQAAVDYYTTTPALVFGKPVRVHLSQKYKRIKKPEGKPDQKFDQKQELGRVIHLSNLPHSGYSDSAVLKLAEPYGKIKNYILMRMKSQAFIEMETREDAMAMVDHCLKKALWFQGRCVKVDLSEKYKKLVLRIPNRGIDLLKKDKSRKRSYSPDGKESPSDKKSKTDGSQKTESSTEGKEQEEKSGEDGEKDTKDDQTEQEPNMLLESEDELLVDEEEAAALLESGSSVGDETDLANLGDVASDGKKEPSDKAVKKDGSASAAAKKKLKKVDKIEELDQENEAALENGIKNEENTEPGAESSENADDPNKDTSENADGQSDENKDDYTIPDEYRIGPYQPNVPVGIDYVIPKTGFYCKLCSLFYTNEEVAKNTHCSSLPHYQKLKKFLNKLAEERRQKKET"
binds,binds,,,"nucleoporin 133, endogenous in HEK cell lysate (protein, UniProt Q8WUM0 1-1156) MFPAAPSPRTPGTGSRRGPLAGLGPGSTPRTASRKGLPLGSAVSSPVLFSPVGRRSSLSSRGTPTRMFPHHSITESVNYDVKTFGSSLPVKVMEALTLAEVDDQLTINIDEGGWACLVCKEKLIIWKIALSPITKLSVCKELQLPPSDFHWSADLVALSYSSPSGEAHSTQAVAVMVATREGSIRYWPSLAGEDTYTEAFVDSGGDKTYSFLTAVQGGSFILSSSGSQLIRLIPESSGKIHQHILPQGQGMLSGIGRKVSSLFGILSPSSDLTLSSVLWDRERSSFYSLTSSNISKWELDDSSEKHAYSWDINRALKENITDAIWGSESNYEAIKEGVNIRYLDLKQNCDGLVILAAAWHSADNPCLIYYSLITIEDNGCQMSDAVTVEVTQYNPPFQSEDLILCQLTVPNFSNQTAYLYNESAVYVCSTGTGKFSLPQEKIVFNAQGDSVLGAGACGGVPIIFSRNSGLVSITSRENVSILAEDLEGSLASSVAGPNSESMIFETTTKNETIAQEDKIKLLKAAFLQYCRKDLGHAQMVVDELFSSHSDLDSDSELDRAVTQISVDLMDDYPASDPRWAESVPEEAPGFSNTSLIILHQLEDKMKAHSFLMDFIHQVGLFGRLGSFPVRGTPMATRLLLCEHAEKLSAAIVLKNHHSRLSDLVNTAILIALNKREYEIPSNLTPADVFFREVSQVDTICECLLEHEEQVLRDAPMDSIEWAEVVINVNNILKDMLQAASHYRQNRNSLYRREESLEKEPEYVPWTATSGPGGIRTVIIRQHEIVLKVAYPQADSNLRNIVTEQLVALIDCFLDGYVSQLKSVDKSSNRERYDNLEMEYLQKRSDLLSPLLSLGQYLWAASLAEKYCDFDILVQMCEQTDNQSRLQRYMTQFADQNFSDFLFRWYLEKGKRGKLLSQPISQHGQLANFLQAHEHLSWLHEINSQELEKAHATLLGLANMETRYFAKKKTLLGLSKLAALASDFSEDMLQEKIEEMAEQERFLLHQETLPEQLLAEKQLNLSAMPVLTAPQLIGLYICEENRRANEYDFKKALDLLEYIDEEEDININDLKLEILCKALQRDNWSSSDGKDDPIEVSKDSIFVKILQKLLKDGIQLSEYLPEVKDLLQADQLGSLKSNPYFEFVLKANYEYYVQGQI"
